Laboratory results as given in paper PMC9485119.
These are yes or no findings as the source states them, for the method shown. In cells and extracts the contact can be indirect. Some results given as binding are weak or reduced against the parent protein; the word gives no strength.

T1: E3 ubiquitin-protein ligase praja2 (human (endogenous in HCT 116 and HT-29)) (UniProt O43164)
T1 sequence: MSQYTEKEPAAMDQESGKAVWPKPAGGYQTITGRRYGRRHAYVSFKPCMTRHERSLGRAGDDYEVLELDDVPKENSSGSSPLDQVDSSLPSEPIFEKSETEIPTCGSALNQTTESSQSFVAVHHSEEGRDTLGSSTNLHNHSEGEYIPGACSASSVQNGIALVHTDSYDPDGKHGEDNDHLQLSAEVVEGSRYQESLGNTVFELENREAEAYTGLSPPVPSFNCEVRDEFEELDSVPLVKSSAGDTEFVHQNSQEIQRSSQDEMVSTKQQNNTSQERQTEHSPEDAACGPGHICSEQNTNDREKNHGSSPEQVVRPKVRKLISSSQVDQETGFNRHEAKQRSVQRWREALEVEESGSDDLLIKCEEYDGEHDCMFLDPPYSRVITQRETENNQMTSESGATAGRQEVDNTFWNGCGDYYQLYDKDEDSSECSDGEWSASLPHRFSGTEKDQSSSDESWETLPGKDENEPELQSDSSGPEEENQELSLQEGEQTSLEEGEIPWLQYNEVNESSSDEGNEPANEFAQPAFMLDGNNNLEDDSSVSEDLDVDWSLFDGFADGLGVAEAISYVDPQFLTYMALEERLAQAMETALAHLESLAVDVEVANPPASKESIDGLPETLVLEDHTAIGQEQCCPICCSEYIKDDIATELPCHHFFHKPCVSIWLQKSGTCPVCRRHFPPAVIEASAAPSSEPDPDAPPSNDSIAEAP

T2: MOB kinase activator 1A (MOB1A) (human (endogenous in HCT 116 and HT-29)) (UniProt Q9H8S9)
T2 sequence: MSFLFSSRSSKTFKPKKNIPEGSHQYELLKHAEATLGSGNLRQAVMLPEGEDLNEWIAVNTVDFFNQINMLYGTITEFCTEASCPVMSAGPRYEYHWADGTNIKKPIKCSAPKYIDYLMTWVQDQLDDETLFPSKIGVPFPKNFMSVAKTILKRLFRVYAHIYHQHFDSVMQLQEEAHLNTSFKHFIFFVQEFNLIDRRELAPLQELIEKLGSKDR


How the values were obtained:
[1] = target: T1, E3 ubiquitin-protein ligase praja2 (human (endogenous in HCT 116 and HT-29)); assay: co-IP; endogenous proteins in HCT 116 and HT-29 cells; immunoprecipitation with anti-MOB1A or anti-praja2 antibody, western blot; also in cells with WEE2-AS1 knockdown or overexpression
[2] = target: T2, MOB kinase activator 1A (MOB1A) (human (endogenous in HCT 116 and HT-29)); assay: as above

Row | binding [1] | binding [2] | Binder
1 | binds |  | MOB kinase activator 1A (MOB1A) (protein, UniProt Q9H8S9 1-216) MSFLFSSRSSKTFKPKKNIPEGSHQYELLKHAEATLGSGNLRQAVMLPEGEDLNEWIAVNTVDFFNQINMLYGTITEFCTEASCPVMSAGPRYEYHWADGTNIKKPIKCSAPKYIDYLMTWVQDQLDDETLFPSKIGVPFPKNFMSVAKTILKRLFRVYAHIYHQHFDSVMQLQEEAHLNTSFKHFIFFVQEFNLIDRRELAPLQELIEKLGSKDR
2 |  | binds | E3 ubiquitin-protein ligase praja2 (enzyme, UniProt O43164 1-708) MSQYTEKEPAAMDQESGKAVWPKPAGGYQTITGRRYGRRHAYVSFKPCMTRHERSLGRAGDDYEVLELDDVPKENSSGSSPLDQVDSSLPSEPIFEKSETEIPTCGSALNQTTESSQSFVAVHHSEEGRDTLGSSTNLHNHSEGEYIPGACSASSVQNGIALVHTDSYDPDGKHGEDNDHLQLSAEVVEGSRYQESLGNTVFELENREAEAYTGLSPPVPSFNCEVRDEFEELDSVPLVKSSAGDTEFVHQNSQEIQRSSQDEMVSTKQQNNTSQERQTEHSPEDAACGPGHICSEQNTNDREKNHGSSPEQVVRPKVRKLISSSQVDQETGFNRHEAKQRSVQRWREALEVEESGSDDLLIKCEEYDGEHDCMFLDPPYSRVITQRETENNQMTSESGATAGRQEVDNTFWNGCGDYYQLYDKDEDSSECSDGEWSASLPHRFSGTEKDQSSSDESWETLPGKDENEPELQSDSSGPEEENQELSLQEGEQTSLEEGEIPWLQYNEVNESSSDEGNEPANEFAQPAFMLDGNNNLEDDSSVSEDLDVDWSLFDGFADGLGVAEAISYVDPQFLTYMALEERLAQAMETALAHLESLAVDVEVANPPASKESIDGLPETLVLEDHTAIGQEQCCPICCSEYIKDDIATELPCHHFFHKPCVSIWLQKSGTCPVCRRHFPPAVIEASAAPSSEPDPDAPPSNDSIAEAP
